Laboratory results published in patent US9040725B2, “Benzocycloheptane and benzoxepine derivatives” (Janssen Pharmaceutica NV, priority 2008, dated 2015).
The structures given here were assigned with low confidence; some may be wrong.

By UniProt entry, the sequences of proteins in these tests, tags left out.
UniProt Q92847, whole entry: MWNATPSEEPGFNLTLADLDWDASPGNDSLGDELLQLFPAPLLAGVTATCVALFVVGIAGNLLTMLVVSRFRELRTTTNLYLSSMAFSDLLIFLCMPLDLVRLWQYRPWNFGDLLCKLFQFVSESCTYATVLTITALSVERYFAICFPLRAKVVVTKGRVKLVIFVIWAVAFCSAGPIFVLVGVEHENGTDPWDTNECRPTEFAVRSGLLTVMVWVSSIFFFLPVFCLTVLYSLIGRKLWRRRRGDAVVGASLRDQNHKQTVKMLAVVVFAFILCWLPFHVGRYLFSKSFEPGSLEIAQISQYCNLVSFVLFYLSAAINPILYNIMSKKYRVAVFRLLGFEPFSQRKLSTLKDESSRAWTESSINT

Tests used:
GHS1A-receptor = GHS1A-receptor (Homo sapiens, UniProt Q92847); test: Ghrelin-agonism in HEK293 cells (intracellular calcium, FLIPR); assay type: cell-based; settings: HEK293 cells permanently transfected with GHS1A-receptor, calcium fluorescence (fluo-4 or Kit-3), EC50 in M, tested form: oxalate
NMRI-mice = test: Acceleration of gastric emptying and small intestinal propulsion in NMRI-mice; assay type: in vivo; settings: lowest active dose, subcutaneous, 30 min before phenol red test meal, tested form: oxalate
Description: Male NMRI-mice weighing around 25 gram were fasted for 20 h and had free access to drinking water. Test compounds were administered to the animals by subcutaneous route 30 min before they were given a test meal by oral gavage. The test meal consisted of 0.3 ml of a chocolate nutridrink solution (1.0 kcal/ml) containing phenol red marker (5 mg/ml). Fifteen min after administration of the meal, the mice were sacrificed by CO2 gas inhalation. The phenol red content remaining in the stomach (extracted from the stomach with NaOH) was determined at 557 nm in a spectrophotometer and expressed as extinction units. Small intestinal propulsion was determined as the distance traveled by the phenol red marker through the intestine and expressed as a percentage of total small intestinal length (from the pylorus to the ileo-cecal junction).
The lowest dose that was active for each parameter was noted as the lowest active dose (LAD). Table 12 discloses LAD values.

pEC50 (GHS1A-receptor): 8.0
SMILES: CN(C)CCC[C@@]1(O)c2ccccc2CCC[C@@H]1c1cccc(Cl)c1 (relative stereo)
LAD (mg/kg) Small intestinal propulsion (NMRI-mice; active when >60% of animals had phenol red front beyond 85% of small intestinal length): >10 mg/kg
LAD (mg/kg) Gastric emptying (NMRI-mice; stomach content 15 min after meal, active when >60% of animals below 0.9 extinction units): >10 mg/kg
